# According to article PMC11437497:
# Protein sequences, listed by entry. Tags and fused reporters are not part of them.
# UniProt P0DTC4: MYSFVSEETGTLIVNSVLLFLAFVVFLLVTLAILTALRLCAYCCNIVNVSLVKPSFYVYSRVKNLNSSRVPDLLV
# These are yes or no findings as the source states them, for the method shown. Binding seen in cells or lysates may run through a third protein. Some entries that bind do so weakly or less than the wild type. Where a sequence is shown, tags or fusion partners need not be part of it.
# B1: adaptor protein complex 3 subunit B1 (AP3B1), HA-tagged (protein, UniProt O00203 1-1094)
# chain: MSSNSFPYNEQSGGGEATELGQEATSTISPSGAFGLFSSDLKKNEDLKQMLESNKDSAKLDAMKRIVGMIAKGKNASELFPAVVKNVASKNIEIKKLVYVYLVRYAEEQQDLALLSISTFQRALKDPNQLIRASALRVLSSIRVPIIVPIMMLAIKEASADLSPYVRKNAAHAIQKLYSLDPEQKEMLIEVIEKLLKDKSTLVAGSVVMAFEEVCPDRIDLIHKNYRKLCNLLVDVEEWGQVVIIHMLTRYARTQFVSPWKEGDELEDNGKNFYESDDDQKEKTDKKKKPYTMDPDHRLLIRNTKPLLQSRNAAVVMAVAQLYWHISPKSEAGIISKSLVRLLRSNREVQYIVLQNIATMSIQRKGMFEPYLKSFYVRSTDPTMIKTLKLEILTNLANEANISTLLREFQTYVKSQDKQFAAATIQTIGRCATNILEVTDTCLNGLVCLLSNRDEIVVAESVVVIKKLLQMQPAQHGEIIKHMAKLLDSITVPVARASILWLIGENCERVPKIAPDVLRKMAKSFTSEDDLVKLQILNLGAKLYLTNSKQTKLLTQYILNLGKYDQNYDIRDRTRFIRQLIVPNVKSGALSKYAKKIFLAQKPAPLLESPFKDRDHFQLGTLSHTLNIKATGYLELSNWPEVAPDPSVRNVEVIELAKEWTPAGKAKQENSAKKFYSESEEEEDSSDSSSDSESESGSESGEQGESGEEGDSNEDSSEDSSSEQDSESGRESGLENKRTAKRNSKAKGKSDSEDGEKENEKSKTSDSSNDESSSIEDSSSDSESESEPESESESRRVTKEKEKKTKQDRTPLTKDVSLLDLDDFNPVSTPVALPTPALSPSLMADLEGLHLSTSSSVISVSTPAFVPTKTHVLLHRMSGKGLAAHYFFPRQPCIFGDKMVSIQITLNNTTDRKIENIHIGEKKLPIGMKMHVFNPIDSLEPEGSITVSMGIDFCDSTQTASFQLCTKDDCFNVNIQPPVGELLLPVAMSEKDFKKEQGVLTGMNETSAVIIAAPQNFTPSVIFQKVVNVANVGAVPSGQDNIHRFAAKTVHSGSLMLVTVELKEGSTAQLIINTEKTVIGSVLLRELKPVLSQG
# Key:
# [1] = target: T1, adaptor protein complex 3 subunit B1 (AP3B1), HA-tagged (human) (UniProt O00203); test: co-IP
# T1 sequence: B1 chain
# [2] = target: SARS-CoV-2 envelope (E) protein, FLAG-tagged (SARS-CoV-2) (UniProt P0DTC4); test: co-IP
Molecule,binding [1],binding [2]
"SARS-CoV-2 envelope (E) protein, FLAG-tagged (from UniProt P0DTC4 1-75)",binds,
B1,,binds
